The supplement of paper PMC6411743
± gives the standard deviation of the averaged measurements. The entries are a selection whose mix differs from that of the whole data set.

Assays:
Assay in all cases: NP40-soluble protein abundance relative to vehicle (solubility fold change) (ratio); higher = more soluble protein in presence of AMP-PNP
[1] = target: T1, Q5SZG2 and related entries (UniProt Q8TAK5)
T1 sequence (whole entry): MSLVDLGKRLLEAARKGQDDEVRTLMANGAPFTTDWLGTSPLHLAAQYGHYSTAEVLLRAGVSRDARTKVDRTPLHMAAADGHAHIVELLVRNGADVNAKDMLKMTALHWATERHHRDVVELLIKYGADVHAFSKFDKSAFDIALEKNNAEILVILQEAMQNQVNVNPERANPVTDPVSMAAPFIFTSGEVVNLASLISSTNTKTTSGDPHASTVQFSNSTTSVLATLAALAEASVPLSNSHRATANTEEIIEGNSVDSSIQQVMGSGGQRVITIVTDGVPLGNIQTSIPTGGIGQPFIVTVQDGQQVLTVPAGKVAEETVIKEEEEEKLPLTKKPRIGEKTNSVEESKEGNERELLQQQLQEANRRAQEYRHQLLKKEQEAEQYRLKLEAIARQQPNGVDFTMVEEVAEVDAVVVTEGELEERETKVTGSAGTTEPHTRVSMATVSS
Procedure, shortened: (§1)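 In three independent experiments, Jurkat crude lysate made by Dounce homogenisation was treated for 10 min at room temperature and then 3 min at 37 °C with eight concentrations ranging from 0.1 to 10 mM. It was then solubilised with 0.8% NP40 plus benzonase for 60 min at 4 °C and ultracentrifuged. The supernatant was TMT-labelled for LC-MS/MS, and each value is the fold change against the detergent-processed vehicle for the same replicate, using vsn-normalised intensities.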

RABL3 = target: T2, RABL3 (UniProt Q5HYI8)
T2 sequence (whole entry): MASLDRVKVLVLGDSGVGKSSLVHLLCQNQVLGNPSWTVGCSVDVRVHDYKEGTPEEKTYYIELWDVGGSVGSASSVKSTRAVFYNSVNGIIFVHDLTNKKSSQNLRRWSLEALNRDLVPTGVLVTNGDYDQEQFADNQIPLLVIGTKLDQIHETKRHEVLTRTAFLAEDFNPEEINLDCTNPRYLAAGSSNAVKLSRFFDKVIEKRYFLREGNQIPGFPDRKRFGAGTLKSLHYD
Procedure, shortened: as §1

RCN1 = target: T3, RCN1 (UniProt Q15293)
T3 sequence (whole entry): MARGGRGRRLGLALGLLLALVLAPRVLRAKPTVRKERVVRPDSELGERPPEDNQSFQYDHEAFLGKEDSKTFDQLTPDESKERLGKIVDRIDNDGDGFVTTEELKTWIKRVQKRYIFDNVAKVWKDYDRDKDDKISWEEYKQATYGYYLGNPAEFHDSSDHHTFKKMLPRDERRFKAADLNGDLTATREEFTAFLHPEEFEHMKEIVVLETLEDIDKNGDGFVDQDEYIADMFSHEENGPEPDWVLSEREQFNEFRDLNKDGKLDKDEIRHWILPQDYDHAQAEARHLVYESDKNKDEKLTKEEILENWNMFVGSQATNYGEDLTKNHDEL
Procedure, shortened: as §1

TTF1 = target: T4, TTF1 (UniProt Q15361)
T4 sequence (whole entry): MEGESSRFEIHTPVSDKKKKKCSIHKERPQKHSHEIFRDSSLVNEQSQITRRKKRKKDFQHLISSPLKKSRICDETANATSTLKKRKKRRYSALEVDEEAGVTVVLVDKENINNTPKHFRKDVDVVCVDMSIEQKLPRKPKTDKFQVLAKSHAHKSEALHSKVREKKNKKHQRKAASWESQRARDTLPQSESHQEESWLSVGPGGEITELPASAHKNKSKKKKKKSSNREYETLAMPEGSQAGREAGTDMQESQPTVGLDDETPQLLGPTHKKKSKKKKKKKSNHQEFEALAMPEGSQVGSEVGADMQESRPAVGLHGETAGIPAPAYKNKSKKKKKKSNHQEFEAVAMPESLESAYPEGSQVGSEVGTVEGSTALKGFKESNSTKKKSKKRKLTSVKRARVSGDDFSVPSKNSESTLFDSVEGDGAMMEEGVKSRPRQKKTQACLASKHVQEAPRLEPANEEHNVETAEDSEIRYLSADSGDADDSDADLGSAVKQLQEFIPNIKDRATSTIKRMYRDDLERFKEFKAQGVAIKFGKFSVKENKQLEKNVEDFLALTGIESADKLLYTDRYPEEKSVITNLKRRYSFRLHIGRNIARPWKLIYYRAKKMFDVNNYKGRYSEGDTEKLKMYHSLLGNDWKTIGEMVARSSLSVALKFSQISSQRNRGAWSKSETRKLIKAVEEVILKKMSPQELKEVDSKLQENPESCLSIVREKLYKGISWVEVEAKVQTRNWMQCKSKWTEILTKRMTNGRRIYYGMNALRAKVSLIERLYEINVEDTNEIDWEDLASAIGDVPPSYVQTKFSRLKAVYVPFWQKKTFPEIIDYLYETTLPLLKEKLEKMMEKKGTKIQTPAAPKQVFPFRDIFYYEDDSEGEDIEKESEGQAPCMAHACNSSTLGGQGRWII
Procedure, shortened: as §1

UAP1L1 = target: T5, UAP1L1 (UniProt Q3KQV9)
T5 sequence (whole entry): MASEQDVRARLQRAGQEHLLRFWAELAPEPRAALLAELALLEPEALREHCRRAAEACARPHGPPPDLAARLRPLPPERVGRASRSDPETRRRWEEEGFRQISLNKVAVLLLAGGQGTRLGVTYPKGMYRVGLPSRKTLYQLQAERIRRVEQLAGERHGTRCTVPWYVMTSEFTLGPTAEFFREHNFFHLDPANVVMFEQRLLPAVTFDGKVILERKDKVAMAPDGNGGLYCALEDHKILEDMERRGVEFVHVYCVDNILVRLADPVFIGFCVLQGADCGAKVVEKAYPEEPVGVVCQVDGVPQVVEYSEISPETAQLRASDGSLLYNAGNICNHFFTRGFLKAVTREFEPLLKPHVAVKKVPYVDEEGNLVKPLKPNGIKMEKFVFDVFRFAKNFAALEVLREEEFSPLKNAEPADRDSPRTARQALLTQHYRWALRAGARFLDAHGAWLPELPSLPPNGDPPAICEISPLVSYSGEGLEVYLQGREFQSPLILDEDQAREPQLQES
Procedure, shortened: as §1

UniProt Q15398-3|Q15398 = target: T6, UniProt Q15398-3|Q15398
T6 sequence (whole entry): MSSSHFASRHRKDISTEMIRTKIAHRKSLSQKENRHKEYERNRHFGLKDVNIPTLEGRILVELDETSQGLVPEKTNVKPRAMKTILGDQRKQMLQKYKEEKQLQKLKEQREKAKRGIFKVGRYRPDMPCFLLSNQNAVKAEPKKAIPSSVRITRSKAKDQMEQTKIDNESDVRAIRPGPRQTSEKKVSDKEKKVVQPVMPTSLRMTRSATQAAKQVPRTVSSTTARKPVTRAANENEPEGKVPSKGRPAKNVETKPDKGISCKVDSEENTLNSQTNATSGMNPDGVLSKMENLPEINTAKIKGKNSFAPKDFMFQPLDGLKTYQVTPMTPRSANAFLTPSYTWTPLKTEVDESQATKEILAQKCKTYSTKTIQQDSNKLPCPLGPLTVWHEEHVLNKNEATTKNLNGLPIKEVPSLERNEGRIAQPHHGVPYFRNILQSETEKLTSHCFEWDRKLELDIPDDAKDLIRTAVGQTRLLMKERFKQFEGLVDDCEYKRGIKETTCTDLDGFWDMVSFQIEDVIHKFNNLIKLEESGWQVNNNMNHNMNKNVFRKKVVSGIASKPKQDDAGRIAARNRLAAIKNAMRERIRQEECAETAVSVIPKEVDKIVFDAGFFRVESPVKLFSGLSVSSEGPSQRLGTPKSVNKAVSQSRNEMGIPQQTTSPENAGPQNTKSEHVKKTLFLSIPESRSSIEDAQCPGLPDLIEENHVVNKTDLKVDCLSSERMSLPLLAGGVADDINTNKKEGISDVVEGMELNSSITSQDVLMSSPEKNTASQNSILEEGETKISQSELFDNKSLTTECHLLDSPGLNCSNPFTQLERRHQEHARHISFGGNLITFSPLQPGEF
Procedure, shortened: as §1

[2] = target: T7, UniProt Q15723 and related entries
T7 sequence (whole entry): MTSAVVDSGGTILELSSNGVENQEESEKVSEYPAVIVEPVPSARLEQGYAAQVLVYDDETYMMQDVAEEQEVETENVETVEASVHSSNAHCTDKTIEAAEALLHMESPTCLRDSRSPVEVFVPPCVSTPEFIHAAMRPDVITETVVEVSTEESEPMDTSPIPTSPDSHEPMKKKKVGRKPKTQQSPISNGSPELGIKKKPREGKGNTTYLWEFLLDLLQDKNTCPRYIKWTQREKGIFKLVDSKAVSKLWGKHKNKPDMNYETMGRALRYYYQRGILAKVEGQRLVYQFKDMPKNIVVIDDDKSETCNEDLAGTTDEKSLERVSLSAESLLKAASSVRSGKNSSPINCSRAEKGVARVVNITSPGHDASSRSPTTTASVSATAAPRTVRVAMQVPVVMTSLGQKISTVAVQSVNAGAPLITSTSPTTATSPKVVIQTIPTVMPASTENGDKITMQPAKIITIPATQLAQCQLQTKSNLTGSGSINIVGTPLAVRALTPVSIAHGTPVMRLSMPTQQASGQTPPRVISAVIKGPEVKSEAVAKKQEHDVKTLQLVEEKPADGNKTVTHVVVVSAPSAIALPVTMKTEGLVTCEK
Procedure, shortened: as §1

[3] = target: T8, UniProt Q15782-5|H0YE91 and related entries
T8 sequence (whole entry): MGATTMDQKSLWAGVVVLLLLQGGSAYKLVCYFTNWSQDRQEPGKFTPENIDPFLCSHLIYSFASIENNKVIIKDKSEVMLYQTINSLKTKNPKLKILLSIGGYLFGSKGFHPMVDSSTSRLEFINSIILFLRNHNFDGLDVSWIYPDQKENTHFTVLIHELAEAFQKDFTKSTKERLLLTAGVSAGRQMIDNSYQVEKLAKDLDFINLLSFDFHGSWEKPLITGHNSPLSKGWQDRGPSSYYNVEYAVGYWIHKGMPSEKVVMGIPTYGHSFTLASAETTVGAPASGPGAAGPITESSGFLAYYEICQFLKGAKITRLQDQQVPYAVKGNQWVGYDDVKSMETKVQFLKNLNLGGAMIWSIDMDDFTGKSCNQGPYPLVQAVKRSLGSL
Procedure, shortened: as §1

For `Nc1ncnc2c1ncn2[C@@H]1O[C@H](COP(=O)(O)OP(=O)(O)NP(=O)(O)O)[C@@H](O)[C@H]1O` [adenylyl imidodiphosphate], the NP40-soluble protein abundance ([1]; concentration: 1mM) was 0.991 ± 0.029, the NP40-soluble protein abundance ([1]; concentration: 2mM) was 1.01 ± 0.021 and the NP40-soluble protein abundance ([1]; concentration: 4mM) was 0.97 ± 0.037. It also gave an NP40-soluble protein abundance ([1]; concentration: 6mM) of 0.986 ± 0.034, an NP40-soluble protein abundance ([1]; concentration: 8mM) of 0.973 ± 0.035 and an NP40-soluble protein abundance ([1]; concentration: 10mM) of 0.973 ± 0.042. For the same compound, the NP40-soluble protein abundance (RABL3; concentration: 1mM) was 0.999 ± 0.025, the NP40-soluble protein abundance (RABL3; concentration: 2mM) was 1.02 ± 0.0055 and the NP40-soluble protein abundance (RABL3; concentration: 4mM) was 1 ± 0.018. It also gave an NP40-soluble protein abundance (RABL3; concentration: 6mM) of 1.06 ± 0.023, an NP40-soluble protein abundance (RABL3; concentration: 8mM) of 1.06 ± 0.033 and an NP40-soluble protein abundance (RABL3; concentration: 10mM) of 1.03 ± 0.018. The NP40-soluble protein abundance (RCN1; concentration: 1mM) was 0.991 ± 0.036, the NP40-soluble protein abundance (RCN1; concentration: 2mM) was 1.04 ± 0.042 and the NP40-soluble protein abundance (RCN1; concentration: 4mM) was 0.975 ± 0.02. For the same compound, the NP40-soluble protein abundance (RCN1; concentration: 6mM) was 0.998 ± 0.049, the NP40-soluble protein abundance (RCN1; concentration: 8mM) was 0.996 ± 0.014 and the NP40-soluble protein abundance (RCN1; concentration: 10mM) was 0.975 ± 0.04. The NP40-soluble protein abundance (TTF1; concentration: 1mM) was 0.967 ± 0.024, the NP40-soluble protein abundance (TTF1; concentration: 2mM) was 0.963 ± 0.024 and the NP40-soluble protein abundance (TTF1; concentration: 4mM) was 0.957 ± 0.025. The NP40-soluble protein abundance (TTF1; concentration: 6mM) was 0.96 ± 0.046, the NP40-soluble protein abundance (TTF1; concentration: 8mM) was 0.912 ± 0.02 and the NP40-soluble protein abundance (TTF1; concentration: 10mM) was 0.949 ± 0.045. It also gave an NP40-soluble protein abundance (UAP1L1; concentration: 1mM) of 1.02 ± 0.024, an NP40-soluble protein abundance (UAP1L1; concentration: 2mM) of 1.02 ± 0.043 and an NP40-soluble protein abundance (UAP1L1; concentration: 4mM) of 0.993 ± 0.02. The NP40-soluble protein abundance (UAP1L1; concentration: 6mM) was 0.993 ± 0.021, the NP40-soluble protein abundance (UAP1L1; concentration: 8mM) was 0.989 ± 0.022 and the NP40-soluble protein abundance (UAP1L1; concentration: 10mM) was 0.987 ± 0.015. The NP40-soluble protein abundance (UniProt Q15398-3|Q15398; concentration: 1mM) was 1.03 ± 0.025, the NP40-soluble protein abundance (UniProt Q15398-3|Q15398; concentration: 2mM) was 1.06 ± 0.041 and the NP40-soluble protein abundance (UniProt Q15398-3|Q15398; concentration: 4mM) was 1.02 ± 0.046. It also gave an NP40-soluble protein abundance (UniProt Q15398-3|Q15398; concentration: 6mM) of 0.978 ± 0.025, an NP40-soluble protein abundance (UniProt Q15398-3|Q15398; concentration: 8mM) of 0.949 ± 0.01 and an NP40-soluble protein abundance (UniProt Q15398-3|Q15398; concentration: 10mM) of 1 ± 0.039. The NP40-soluble protein abundance ([2]; concentration: 1mM) was 1.02 ± 0.037, the NP40-soluble protein abundance ([2]; concentration: 2mM) was 1.02 ± 0.04 and the NP40-soluble protein abundance ([2]; concentration: 4mM) was 1.04 ± 0.013. The NP40-soluble protein abundance ([2]; concentration: 6mM) was 0.974 ± 0.023, the NP40-soluble protein abundance ([2]; concentration: 8mM) was 0.989 ± 0.023 and the NP40-soluble protein abundance ([2]; concentration: 10mM) was 0.997 ± 0.063. The NP40-soluble protein abundance ([3]; concentration: 1mM) was 0.868 ± 0.066, the NP40-soluble protein abundance ([3]; concentration: 2mM) was 0.902 ± 0.029 and the NP40-soluble protein abundance ([3]; concentration: 4mM) was 0.937 ± 0.055. It also gave an NP40-soluble protein abundance ([3]; concentration: 6mM) of 0.939 ± 0.066, an NP40-soluble protein abundance ([3]; concentration: 8mM) of 0.93 ± 0.057 and an NP40-soluble protein abundance ([3]; concentration: 10mM) of 0.95 ± 0.092.
